Reference: patent US20260176290A1, “INHIBITORS OF KRAS(G12D)” (Ranok Therapeutics (Hangzhou) Co. Ltd., priority 2022, published 2026)
pIC50: −log10 of the molar value. The structures given here were assigned with low confidence; some may be wrong.

By UniProt entry, the sequences of proteins in these tests, tags left out. Residues count along the entry.
UniProt P01116, 1-188 isoform 2 G12D: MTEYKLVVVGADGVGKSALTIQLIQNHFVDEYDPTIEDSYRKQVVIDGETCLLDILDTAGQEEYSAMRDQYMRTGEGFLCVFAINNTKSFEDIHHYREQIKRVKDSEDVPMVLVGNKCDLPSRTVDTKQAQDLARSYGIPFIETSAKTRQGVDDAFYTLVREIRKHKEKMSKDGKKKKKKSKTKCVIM

Key:
KRAS (G12D)/SOS1 = KRAS (G12D)/SOS1 (Homo sapiens, UniProt P01116, G12D); assay: KRAS (G12D)/SOS1 homogeneous time-resolved fluorescence (HTRF) assay; type: binding; settings: read-out: HTRF of KRAS^G12D-SOS1; absence of GTP, 4° C. for 3 hr
[1] = system: AGS gastric carcinoma cells [heterozygous G12D]; assay: Cancer cell line proliferation (CellTiter-Glo), AGS; settings: read-out: CTG(IC50), ABS-72 H(nM) AGS
[2] = system: A-427 lung carcinoma cells [heterozygous G12D]; assay: Cancer cell line proliferation (CellTiter-Glo), A-427; settings: read-out: CTG(IC50), ABS-72 H(nM) A427
[3] = system: ASPC1 pancreatic adenocarcinoma cells [homozygous G12D]; assay: Cancer cell line proliferation (CellTiter-Glo), ASPC1; settings: read-out: CTG(IC50), ABS-72 H(nM) ASPC-1, ASPC-1 cells
[4] = system: SW1990 pancreatic adenocarcinoma cells [homozygous G12D]; assay: Cancer cell line proliferation (CellTiter-Glo), SW1990; settings: read-out: CTG(IC50), ABS-72 H(nM) SW1990

C#Cc1c(F)ccc2cc(O)cc(-c3ncc4c(N5CC6NC(C5)C5CC65)nc(OCC5(CN6CCC(F)CC6)CC5)nc4c3F)c12 (centres unmarked)
pIC50 (KRAS (G12D)/SOS1): > 7.00
IC50 [1]: 100 to 1000 nM
IC50 [2]: 100 to 1000 nM
IC50 [3]: 100 to 1000 nM
IC50 [4]: 100 to 1000 nM
